{
  "source": "patent US20260258465",
  "about": "“NUCLEIC ACID-GUIDED DNA SYNTHESIS” (The Trustees of Columbia University in the City of New York, published 2026)",
  "key": {"[1]": {"system": "KpnDRT2 reverse transcriptase (Klebsiella pneumoniae)", "test": "activity in cells", "settings": "protein in cells, protein details: N-terminal 3xFLAG (some plasmids untagged), variant of KpnDRT2 ncRNA WT"}, "[2]": {"system": "KpnDRT2 reverse transcriptase (Klebsiella pneumoniae)", "test": "pull-down", "settings": "RIP-seq; strong ncRNA and cDNA enrichment; protein in cells; protein details: N-terminal 3xFLAG (some plasmids untagged); variant of KpnDRT2 ncRNA WT"}, "[3]": {"system": "KpnDRT2 reverse transcriptase (Klebsiella pneumoniae)", "test": "activity assay", "settings": "in vitro reverse transcription with 1 mM dNTPs, 5 mM MgCl2, 37 C; ncRNA consumed by 45 min; purified recombinant protein"}},
  "note": "For some of these results: Construct, isoform or probe ends are uncertain for at least one entry. For some of these results: A weaker result is weaker than the reference pair of the same experiment. For some of these results: At least one result comes from cells or an extract, where the contact may be indirect.",
  "data": [
    {"sequence": "GCCCUAAACAAAGGUUUAGGGGUAUUGUACAGGUUGUCAAGCCUCCCACAGGUCUUGGCGCUACUGAUUACAUUAUACAGCAUAUCUAACAUUUGCGGCGAGGUUCACAAUUUGUAUUUAGGUACUGAUUGUGGAUGAGAAGGUUGGAGAAAGACCACUUGGUUAAGCCGGAGGAUGUGUCCUAGAAUUGUCGCUAUUCUGUCAUCCUCCGGUUUUGCUAA [del60]", "values": [
      {"measurement": "activity on this sequence", "setting": "[1]; near-WT", "result": "active"}
    ]},
    {"sequence": "GCCCUAAACAAAGGUUUAGGGGUAUUGUACAGGUUGUCAAGCCUCCCACAGGUCUUGGUGAAACCAAUAUUGACUCCACGCUACUGAUUACAUUAUACAGCAUAUCUAACAUUUGCGGCGAGGUUCACAAUUUGUAUUUAGGUACUGAUUGUGGAUGAGAAGGUUGGAGAAAGACCACUUGGUUAAGCCGGAGGAUGUGUCCUAGAAUUGUCGCUAUUCUGUCAUCCUCCGGUUUUGCUAA [del40]", "values": [
      {"measurement": "activity on this sequence", "setting": "[1]; near-WT", "result": "active"}
    ]},
    {"sequence": "GCCCUAAACAAAGGUUUAGGGGUAUUGUACAGGUUGUCAAGCCUCCCACAGGUCUUGGUGAAACCAAUCACUGUGACGACGGUAAGCAACACUUGGAUGAUAUUCAUAAUUGACUCCACGCUACCUAAUUUUUAGCGAAACAUAUCUAACAUUUGCGGCGAGGUUCACAAUUUGUAUUUAGGUACUGAUUGUGGAUGAGAAGGUUGGAGAAAGACCACUUGGUUAAGCCGGAGGAUGUGUCCUAGAAUUGUCGCUAUUCUGUCAUCCUCCGGUUUUGCUAA [SL5 scrambled ncRNA]", "values": [
      {"measurement": "binding result", "setting": "[2]", "result": "binds"}
    ]},
    {"sequence": "GCCCUAAACAAAGGUUUAGGGGUAUUGUACAGGUUGUCAAGCCUCCCACAGGUCUUGGUGAAACCAAUCACUGUGACGACGGUAAGCAACACUUGGAUGAUAUUCAUAAUUGACUCCACGCUACUGAUUACAUUAUACAGCAUAUCUAACAUUUGCGGCGAGGUUCACAAUUUGUAUUUAGGUACUGAUUGUGGAUGAGAAGGUUGGAGAAAGACCACUUGGUUAAGCCGGAGGAUGUGUCCUAGAAUUGUCGCUAUUCUGUCAUCCUCCGGUUUUGCUAA [KpnDRT2 ncRNA WT]", "values": [
      {"measurement": "activity on this sequence", "setting": "[3]", "result": "active"}
    ]},
    {"sequence": "GCCCUAAACAAAGGUUUAGGGGUAUUGUACAGGUUGUCAAGCCUCCCACAGGUCUUGGUGAAACCAAUCACUGUGACGACGGUAAGCAACACUUGGAUGAUAUUCAUAAUUGACUCCACGCUACUGAUUACAUUAUACAGCAUAUCUAACAUUUGCGGCGAGGUUCACAAUUUGUAUUUAGGUACUGAUUGUGGAUGAGAAGGUUGGAGAAAGACCACUUGGUUAAGCCGGAGGAUGUGUCCUAGAAUUGUCGCUAUUCUGUCAUCCUCCGGUUUUGCUAAUAUUC [3'ins5]", "values": [
      {"measurement": "activity on this sequence", "setting": "[1]; cDNA and RCRT similar to WT", "result": "active"}
    ]},
    {"sequence": "GCCCUAAACAAAGGUUUAGGGGUAUUGUACAGGUUGUCAAGCCUCCCACAGGUCUUGGUGAAACCAAUCACUGUGACGACGGUAAGCAACACUUGGAUGAUAUUCAUAAUUGACUCCACGCUACUGAUUACUGCUAGAGGAUGGAAUGACCUUAAAUCAGGGACGAUAUUAAACGGAACGUAUAUUCAACGCAAUGAAGCCGGAGGAUUGGCGUGGGAAUCGUGCUUCUGUCUAAGCAAGUAAGGGUAUGAGGUCGCAACCGUCCCCCAAGCGUACAGGGUGCACUUUGUAACGAUUUGGGAGUCCAGAGACUCGCUGUUUUCGAAAUUUGCCCUCAAGCGCGAGUAUUGAACCAGGCUUACGCCCAAGAACGUAGCAAGCAUUAUACAGCAUAUCUAACAUUUGCGGCGAGGUUCACAAUUUGUAUUUAGGUACUGAUUGUGGAUGAGAAGGUUGGAGAAAGACCACUUGGUUAAGCCGGAGGAUGUGUCCUAGAAUUGUCGCUAUUCUGUCAUCCUCCGGUUUUGCUAA [ins250_SL5]", "values": [
      {"measurement": "activity on this sequence", "setting": "[1]; retained cDNA and RCRT", "result": "active"}
    ]},
    {"sequence": "GCCCUAAACAAAGGUUUAGGGGUAUUGUACAGGUUGUCAAGCCUCCCACAGGUCUUGGUGAAACCAAUCACUGUGACGACGGUAAGCAACACUUGGAUGAUAUUCAUAAUUGACUCCACGCUACUGAUUACUGCUAGAGGAUGGAAUGACCUUAAAUCAGGGACGAUAUUAAACGGAACGUCCCUCAAGCGCGAGUAUUGAACCAGGCUUACGCCCAAGAACGUAGCAAGCAUUAUACAGCAUAUCUAACAUUUGCGGCGAGGUUCACAAUUUGUAUUUAGGUACUGAUUGUGGAUGAGAAGGUUGGAGAAAGACCACUUGGUUAAGCCGGAGGAUGUGUCCUAGAAUUGUCGCUAUUCUGUCAUCCUCCGGUUUUGCUAA [ins100_SL5]", "values": [
      {"measurement": "activity on this sequence", "setting": "[1]; retained cDNA and RCRT", "result": "active"}
    ]},
    {"sequence": "GCCCUAAACAAAGGUUUAGGGGUAUUGUACAGGUUGUCAAGCCUCCCACAGGUCUUGGUGAAACCAAUCACUGUGACGGAUAUUCAUAAUUGACUCCACGCUACUGAUUACAUUAUACAGCAUAUCUAACAUUUGCGGCGAGGUUCACAAUUUGUAUUUAGGUACUGAUUGUGGAUGAGAAGGUUGGAGAAAGACCACUUGGUUAAGCCGGAGGAUGUGUCCUAGAAUUGUCGCUAUUCUGUCAUCCUCCGGUUUUGCUAA [del20]", "values": [
      {"measurement": "activity on this sequence", "setting": "[1]; near-WT", "result": "active"}
    ]},
    {"sequence": "GCCCUAAACAAAGGUUUAGGGGUAUUGUACAGGUUGUCAAGCCUCCCACAGGUCUUGGUUGCUAGAGGAUGGAAUGACCUUAAAUCAGGGACGAUAUUAAACGGAACGUAUAUUCAACGCAAUGAAGCCGGAGGAUUGGCGUGGGAAUCGUGCUUCUGUCUAAGCAAGUAAGGGUAUGAGGUCGCAACCGUCCCCCAAGCGUACAGGGUGCACUUUGUAACGAUUUGGGAGUCCAGAGACUCGCUGUUUUCGAAAUUUGCCCUCAAGCGCGAGUAUUGAACCAGGCUUACGCCCAAGAACGUAGCAAGCGAAACCAAUCACUGUGACGACGGUAAGCAACACUUGGAUGAUAUUCAUAAUUGACUCCACGCUACUGAUUACAUUAUACAGCAUAUCUAACAUUUGCGGCGAGGUUCACAAUUUGUAUUUAGGUACUGAUUGUGGAUGAGAAGGUUGGAGAAAGACCACUUGGUUAAGCCGGAGGAUGUGUCCUAGAAUUGUCGCUAUUCUGUCAUCCUCCGGUUUUGCUAA [ins250_SL3]", "values": [
      {"measurement": "activity on this sequence", "setting": "[1]; retained cDNA and RCRT", "result": "active"}
    ]},
    {"sequence": "GCCCUAAACAAAGGUUUAGGGGUAUUGUACAGGUUGUCAAGCCUCCCACAGGUCUUGGUUGCUAGAGGAUGGAAUGACCUUAAAUCAGGGACGAUAUUAAACGGAACGUCCCUCAAGCGCGAGUAUUGAACCAGGCUUACGCCCAAGAACGUAGCAAGCGAAACCAAUCACUGUGACGACGGUAAGCAACACUUGGAUGAUAUUCAUAAUUGACUCCACGCUACUGAUUACAUUAUACAGCAUAUCUAACAUUUGCGGCGAGGUUCACAAUUUGUAUUUAGGUACUGAUUGUGGAUGAGAAGGUUGGAGAAAGACCACUUGGUUAAGCCGGAGGAUGUGUCCUAGAAUUGUCGCUAUUCUGUCAUCCUCCGGUUUUGCUAA [ins100_SL3]", "values": [
      {"measurement": "activity on this sequence", "setting": "[1]; retained cDNA and RCRT", "result": "active"}
    ]},
    {"sequence": "GCCCUAAACAAAGGUUUAGGGGUAUUGUACAGGUUGUCAAGCCUCCCAUACAUUAUACAGCAUAUCUAACAUUUGCGGCGAGGUUCACAAUUUGUAUUUAGGUACUGAUUGUGGAUGAGAAGGUUGGAGAAAGACCACUUGGUUAAGCCGGAGGAUGUGUCCUAGAAUUGUCGCUAUUCUGUCAUCCUCCGGUUUUGCUAA [del80]", "values": [
      {"measurement": "activity on this sequence", "setting": "[1]; near-WT", "result": "active"}
    ]},
    {"sequence": "GCCCUAAACAAAGGUUUAGGGGUAUUGUACAGGUUGUCAGCAUAUCUAACAUUUGCGGCGAGGUUCACAAUUUGUAUUUAGGUACUGAUUGUGGAUGAGAAGGUUGGAGAAAGACCACUUGGUUAAGCCGGAGGAUGUGUCCUAGAAUUGUCGCUAUUCUGUCAUCCUCCGGUUUUGCUAA [del100]", "values": [
      {"measurement": "activity on this sequence", "setting": "[1]; near-WT", "result": "active"}
    ]},
    {"sequence": "GCCCUAAACAAAGGUUUAGGGGUAUUGUACAUUAAACGUGGUCUGACCCCACCAGCUGGACACCAAUAAAAUAUUGAAGUCCACCUUUGCCGUCAAAGACCGGCUGCAAGUGCAGUAAGUUCCAAAACUUUUUCCCGGAUUUCGUGUAGUUGAUAAGCUGAACGGUCGUCGGGCGACGGUCGCGGAUAGCGUCACGAAUUUUUUGCACCGUGGCUUGGUCAGUUUCUGGCCCCUGCAAAAAACGCGCGUUGCGUCCCAUAAUCUCUUCACGGGAAUACUCCGUCAAUUCCAAGAAACCAUCUGAAGCUGAAAUGAUCGGGUAAUCAGGCAGCCAGGGGUCAGUAAUCACGAACGAUUUUUCCAUACAUUUGCGGCGAGGUUCACAAUUUGUAUUUAGGUACUGAUUGUGGAUGAGAAGGUUGGAGAAAGACCACUUGGUUAAGCCGGAGGAUGUGUCCUAGAAUUGUCGCUAUUCUGUCAUCCUCCGGUUUUGCUAA [sub_miniGFP1]", "values": [
      {"measurement": "activity on this sequence", "setting": "[1]; low but detectable", "result": "less active"}
    ]}
  ]
}
